This is one part of the list. Further columns of the screen follow, without active or inactive calls. The list favours compounds with an active or inconclusive main result. Words in brackets tell the shape of the fitted curve; partial curves, single points and poor fits give uncertain potencies.
Test: Cell signaling CRE-BLA (Fsk stim)
Conditions: CHO CRE-bla reporter (cAMP response element driving beta-lactamase), forskolin EC10, beta-lactamase ratio; measured here: 460 nm blue channel
In short: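 Titrated compounds plus EC10 NKH 477 on CHO CRE-bla cells, 3 h, 37 °C. CCF4, 2 h RT. Ratio 460/530 nm → AC50.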

SMILES	AC50
Clc1ccccc1-c1nc(N2CCNCC2)c2ccccc2n1	3.16 µM [rising, partial curve]
Cn1c(=O)n(C)c(=O)n(CC(=O)N2CCCCC2)c1=O	25.1 µM [rising, single point]
COc1ccc(C(=O)OCCN2C(=O)c3ccccc3C2=O)cc1OC	2 µM [rising, partial curve]
COc1ccc(CNc2nc3nc(C)c(Cl)c(C)n3n2)cc1OC	10 µM [rising, partial curve]
COc1cccc(/C=N/n2c(CO)nc3ccccc32)c1OC	0.1 µM [rising, full curve]
COc1cc(C(=O)COC(=O)Cc2cnc3sccn23)cc(OC)c1OC	12.6 µM [rising, single point]
CCNC(=O)c1cc2c(=O)n3cccc(C)c3nc2n(Cc2ccc(C)cc2)c1=N	1 µM [rising, full curve]
COc1ccc(-c2nc3cnc(N4CCN(C)CC4)nc3n(Cc3cccs3)c2=O)cc1	2.51 µM [rising, full curve]
Cc1nn(Cc2ccc(Cl)cc2Cl)c(C)c1NC(=O)c1nc2n(n1)C(C(F)F)CC(C)N2 (centres undefined)	3.16 µM [falling, single point]
COC(=O)C1=CN(CC2CCCO2)C=C(C(=O)OC)C1c1ccsc1 (centres undefined)	12.6 µM [rising, partial curve]
CCn1c2ccccc2c2nnc(SCC(=O)NC(CC(C)C)C(=O)OC)nc21 (centres undefined)	10 µM [rising, partial curve]
O=S(=O)(/N=S1/CC=CCN1S(=O)(=O)c1ccccc1)c1ccccc1 (centres undefined)	15.8 µM [falling, partial curve]
Cc1ccc(N(Cc2ccco2)C(=O)c2cccc(S(=O)(=O)N(C)C)c2)cc1	5.01 µM [rising, partial curve]
CCCS(=O)(=O)N1CCC(C(=O)N2CCOCC2)CC1	0.00398 µM [falling, full curve, poor fit]
O=C1Nc2ccccc2OC1CC(=O)N1CCN(c2cccc(C(F)(F)F)c2)CC1 (centres undefined)	20 µM [falling, partial curve, poor fit]
CCOC(=O)c1c(NC(=O)CNCC(O)CO)sc(C)c1C (centres undefined)	15.8 µM [rising, partial curve]
O=C(O)c1cc2nc(-c3ccc(F)cc3)cc(C(F)(F)F)n2n1	15.8 µM [rising, single point]
COc1ccc(OC)c(-c2cc(C(=O)Nc3c(C)nn(Cc4ccccc4C)c3C)no2)c1	2 µM [rising, full curve]
COc1ccc(-c2nc3cnc(OC)nc3n(Cc3cccc(OC)c3)c2=O)cc1	3.16 µM [rising, full curve]
COC(=O)c1ccc(-n2nnnc2SCc2ccccc2OC)cc1	12.6 µM [rising, partial curve]
COc1cccc(-c2nn3c(-c4cccc(C)c4)nnc3s2)c1	5.01 µM [falling, single point]
COCCNc1nc(-c2cccc(OC)c2)nc2ccccc12	7.94 µM [rising, partial curve]
COc1ncc2nc(-c3ccccc3)c(=O)n(CCc3ccccc3)c2n1	10 µM [rising, partial curve]

Some of these compounds in order of length of the SMILES, falling.
SMILES	AC50
Cc1nn(Cc2ccc(Cl)cc2Cl)c(C)c1NC(=O)c1nc2n(n1)C(C(F)F)CC(C)N2 (centres undefined)	3.16 µM [falling, single point]
O=C(O)c1cc2nc(-c3ccc(F)cc3)cc(C(F)(F)F)n2n1	15.8 µM [rising, single point]
Clc1ccccc1-c1nc(N2CCNCC2)c2ccccc2n1	3.16 µM [rising, partial curve]

More structures.

SMILES	AC50
CCc1ccc2[nH]c(=O)c(CN(Cc3ccc(OC)cc3)Cc3nnnn3CCOC)cc2c1	5.01 µM [rising, single point]
CCc1nc(C)c(C#N)c2cc(OC)c(OC)cc12	0.2 µM [rising, full curve]
Cc1ccc2c(CN3CCN(S(=O)(=O)c4ccc5c(c4)OCCO5)CC3)cc(=O)oc2c1C	25.1 µM [falling, single point]
COc1cccc(Cn2c(=O)c(-c3ccc(Cl)cc3)nc3cnc(N4CCOCC4)nc32)c1	3.98 µM [rising, partial curve]
COc1cc(C(=O)Nc2nnc(CC(=O)N3CCOCC3)s2)cc(OC)c1OC	0.01 µM [falling, full curve]
COc1cc(C(=O)NCc2nnc(SCC(=O)N3CCc4ccccc43)o2)cc(OC)c1OC	15.8 µM [rising, single point]
COCCOC(=O)c1c(C)oc2ccc(OCc3cc(C(=O)OC)oc3C)cc12	15.8 µM [rising, partial curve]
N#Cc1ccc(C23CC4CC(CC(C4)C2)C3)[nH]c1=O	7.94 µM [rising, single point]
N=c1oc2ccc3ccccc3c2cc1-c1nnc2n1CCCCC2	10 µM [rising, partial curve]
CN1C(=O)C(O)(CC(=O)c2cccnc2)c2ccccc21 (centres undefined)	0.00398 µM [falling, full curve, poor fit]
COCCNc1cc(-c2ccccc2C(F)(F)F)ncn1	5.01 µM [rising, single point]
CC(C)n1nnnc1SCC(=O)NCc1cccs1	3.98 µM [falling, partial curve]
Cn1c(=O)[nH]c(=O)c2c1nc(CN1CCOCC1)n2CCCc1ccccc1	10 µM [rising, partial curve]
Cc1cc(Nc2ccccc2F)n2nc(C)nc2n1	10 µM [rising, single point]
C#CCSc1nc(-c2cccs2)ccc1C#N	12.6 µM [rising, partial curve]
Cc1cc(C)n(-c2nnc(C)n2NS(C)(=O)=O)n1	0.1 µM [falling, full curve, poor fit]
CCC(=O)c1cc2c(cc1NC(=O)c1cccs1)OCCO2	12.6 µM [rising, partial curve]
c1nc(NCCN2CCOCC2)c2cc(-c3ccc4c(c3)OCO4)ccc2n1	12.6 µM [rising, partial curve]
CSc1nc(NC(C)(C)C)nc(N2CCOCC2)n1	12.6 µM [rising, partial curve]
O=C1c2ccccc2C(=O)N1Cc1nn2c(-c3ccc(Cl)cc3)nnc2s1	6.31 µM [rising, partial curve]
CCc1cccc(Nc2cc(C)nc3nc(C)nn23)c1	10 µM [rising, partial curve]
COc1ccccc1NC(=O)CSc1ccc2nnc(-c3ccncc3)n2n1	20 µM [falling, single point]
COc1cc(C(=O)NC2CCN(Cc3nnnn3Cc3cccs3)CC2)cc(OC)c1OC	20 µM [rising, single point]

Molecules above that have a furan ring, fused or not, in the order listed:
SMILES	AC50
Cc1ccc(N(Cc2ccco2)C(=O)c2cccc(S(=O)(=O)N(C)C)c2)cc1	5.01 µM [rising, partial curve]
COCCOC(=O)c1c(C)oc2ccc(OCc3cc(C(=O)OC)oc3C)cc12	15.8 µM [rising, partial curve]

Continuation.

SMILES	AC50
C/C=C/Cn1c(SCc2ccc(Cl)cc2)nc2c1c(=O)[nH]c(=O)n2C	2.51 µM [rising, full curve]
COc1ccc(-n2c(=O)c(C)nc3cnc(Nc4ccccc4)nc32)cc1	10 µM [rising, partial curve]
Cc1cc(Nc2ccc(C)c(Br)c2)n2nc(C)nc2n1	12.6 µM [rising, single point]
COc1ncc2nc(-c3ccccc3)c(=O)n(C[C@H]3CCCO3)c2n1	12.6 µM [rising, partial curve]
COc1cccc(-c2nnc(SCC(=O)OC(C)C)n2Cc2ccco2)c1	1 µM [rising, full curve, poor fit]
CCN(CC)CCn1c(-c2ccccc2)nc2c(NCCOC)nc(C)nc21	10 µM [rising, partial curve]
COc1cccc(Cn2c(=O)c(-c3cn(C)c4ccccc34)nc3cncnc32)c1	15.8 µM [rising, partial curve]
OCC(CO)(CO)n1cnnn1	10 µM [falling, partial curve]
COc1ccc(-c2nc3cnc(OC)nc3n(C)c2=O)cc1	15.8 µM [rising, partial curve]
COc1ccc(OC)c(NC(=O)CSc2nc3ccccc3c(=O)n2CCNC(C)=O)c1	12.6 µM [rising, partial curve]
Cn1c(=O)c2cc(S(=O)(=O)NCCC(=O)Nc3ccc(Cl)cc3)ccc2n(C)c1=O	0.1 µM [falling, partial curve]
CCn1c(=O)cc(OCC(=O)NC2CCCCC2)c2ccccc21	12.6 µM [rising, partial curve]
N[C@@H]1CONC1=O	5.01 µM [rising, partial curve]
CCNc1nc(NCC)n2c(SCc3ccc(F)cc3)nnc2n1	6.31 µM [rising, single point]
Cn1nc(-c2ccc(N3CCOCC3)c(NC(=O)COc3ccccc3)c2)c2ccccc2c1=O	0.501 µM [rising, full curve, poor fit]
CCCCn1c(SCC(=O)N2CC(=O)Nc3ccccc32)nnc1-c1ccoc1C	0.00316 µM [falling, full curve, poor fit]
CSc1ccccc1NC(=O)c1c(C)noc1C	12.6 µM [rising, partial curve]
Cc1ccc(CCNC(=O)CCNS(=O)(=O)c2ccc3c(c2)c(=O)n(C)c(=O)n3C)cc1	0.158 µM [falling, full curve, poor fit]
COc1ccccc1NC(=O)Cn1cnc2c(cnn2-c2ccccc2)c1=O	12.6 µM [rising, partial curve]
CC1CCCCN1C(=O)Cn1c(=O)n(CCC(=O)NCc2ccco2)c(=O)c2sccc21 (centres undefined)	0.158 µM [falling, full curve]
N/N=C1/CC(=O)NC(=O)N1	3.98 µM [rising, single point]
Cc1nnc(NC(=O)CSc2nnc(Cc3ccccc3)n2-c2ccccc2)s1	12.6 µM [rising, single point]
O=C(CSc1nnc2scc(-c3ccc(Cl)cc3)n12)NCc1ccc2c(c1)OCO2	12.6 µM [rising, partial curve]
